# Laboratory results reported in the supplement of paper PMC3334620.
# Over roughly 33,000 sequences, “E-score (-0.5 to 0.5)” has its median near -0.0014; the highest 2% begin near 0.25. This is one part of the list.
# Target: T1, Cad1 (UniProt P24813)
# T1 sequence: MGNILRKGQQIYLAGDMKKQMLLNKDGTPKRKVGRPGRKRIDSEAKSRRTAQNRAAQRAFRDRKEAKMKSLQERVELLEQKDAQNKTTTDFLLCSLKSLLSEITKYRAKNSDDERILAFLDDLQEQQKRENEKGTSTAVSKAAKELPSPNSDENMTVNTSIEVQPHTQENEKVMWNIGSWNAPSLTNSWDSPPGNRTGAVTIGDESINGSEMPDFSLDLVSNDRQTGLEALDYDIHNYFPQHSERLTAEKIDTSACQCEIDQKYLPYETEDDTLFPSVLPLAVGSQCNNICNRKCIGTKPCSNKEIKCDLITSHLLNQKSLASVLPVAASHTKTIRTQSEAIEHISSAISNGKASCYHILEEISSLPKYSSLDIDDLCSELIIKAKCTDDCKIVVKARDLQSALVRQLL
# Assay: PBM E-score (8-mer binding enrichment) (E-score (-0.5 to 0.5)); higher = stronger / more preferred TF binding
# Settings: protein concentration: 100 nM; construct: GST-full length
# Description: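 Universal 'all 10-mer' protein binding microarrays (Agilent AMADID 015681) probed with GST-tagged S. cerevisiae TFs (full-length or DBD) made by in vitro transcription/translation (PURExpress), about 100-200 nM. Bound TF was detected with fluorescent anti-GST. Each ungapped 8-mer (which stands for itself and its reverse complement) is scored by the PBM enrichment score (E-score), a modified Wilcoxon-Mann-Whitney statistic from -0.5 to +0.5, computed with the Universal PBM Analysis Suite. Scale: above 0.35 generally sequence-specific binding.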
row,Sequence,PBM E-score
1,ACGTAGCA,-0.00472
2,AAGGTTAA,-0.00282
3,CGACGACC,-0.0879
4,CGCCTTCC,-0.236
5,AGGGGGCC,-0.393
6,CCACATTC,-0.065
7,GCAGATCC,-0.00886
8,TGACCTAA,0.115
9,AGGTGACT,0.00699
10,CTTTCCGC,0.107
11,CATTAGCA,0.0321
12,ATGGGCGG,-0.0566
13,AATAATTA,0.336
14,AAGTATGG,0.00171
15,ATTAGTAC,0.071
16,ATCCTGTG,-0.127
17,GATAGACA,-0.0074
18,CCAGTCGG,-0.238
19,AGCGTTTC,-0.185
20,CCCAATAG,-0.0892
21,GGTAGGTA,-0.0804
22,GCGTCCGA,0.082
23,CTAAGATC,0.0614
24,AGGAGTGC,-0.0841
25,GAAACCTC,0.00876

row,Sequence,PBM E-score
1,AGATGAGG,-0.163
2,CCCTCAAC,-0.181
3,CGATATCG,0.241
4,CAGGTAAC,-0.0537
5,CGTATCTA,0.00454
6,ACAGAAAC,0.116
7,AATGCCCT,-0.245
8,ATCTGACA,-0.0553
9,AGCTCTCG,-0.227
10,CCATGTAG,-0.0546
11,CTAGAAAC,-0.0974
12,GGTGCCGA,0.0678
13,TGATCGCA,-0.112
14,ACGGTCGG,-0.0507
15,AAGAAAGA,-0.0162
16,CGGTAATA,0.121
17,AGGAGGCC,-0.27
18,CTCGGGTC,-0.033
19,GAATATAA,0.0963
20,ATAGCTTC,-0.0987
21,GATACTAC,0.2
22,CCCAAAGC,-0.13
23,AAGCCATT,0.0852
24,AACTATTG,0.134
25,TTACGAAA,0.232

# For convenience, some entries already given:
row,Sequence,PBM E-score
6,ACAGAAAC,0.116
7,AATGCCCT,-0.245
8,ATCTGACA,-0.0553
9,AGCTCTCG,-0.227
10,CCATGTAG,-0.0546
11,CTAGAAAC,-0.0974
12,GGTGCCGA,0.0678

# A second format for part of the listing above:
row | Sequence | PBM E-score
10 | CCATGTAG | -0.0546
11 | CTAGAAAC | -0.0974

# The list goes on.

row,Sequence,PBM E-score
1,AGTAACCC,0.0776
2,AGTAGGCA,0.103
3,ACGACTCG,-0.0779
4,TCACGACA,0.0406
5,CCTCTCCG,-0.213
6,AGTGACAA,-0.0134
7,CAAGACTC,-0.0201
8,CCGGTCAA,0.132
9,CGGCACCC,-0.216
10,CATCGCGA,0.25
11,CGACGTGA,0.0584
12,ATCTCAAG,0.00391
13,AGGCTTGA,-0.0249
14,GGAGGAAC,-0.13
15,CGGTCAAA,0.176
16,ATAAGGCG,0.0694
17,AGCTCAAA,0.0829
18,ACTTGAAT,0.107
19,ACCAGCCG,0.0467
20,CGTAGTCA,-0.127
21,TACAGAAA,0.217
22,CGACCTCC,-0.077
23,CAGGTGGC,-0.183
24,ATAGTTGC,0.0667
25,CCTCAGTA,-0.198

row,Sequence,PBM E-score
1,AATCATTA,0.0402
2,CCAGTTCA,0.0422
3,GAGGATAC,-0.156
4,GATCGGGA,-0.142
5,CTAAATAG,0.09
6,AGTCAATG,-0.101
7,CGTAGTAC,-0.00804
8,AGGGGAAG,-0.282
9,CCTGTGTC,-0.273
10,CTGCATCA,0.0963
11,CCGCTCAA,-0.0655
12,GCCTCCGA,-0.0456
13,ATCAGCGC,0.176
14,AGACACTG,0.0602
15,ATATACAC,0.0284
16,AACAACGG,0.141
17,AAAGGGGT,-0.314
18,CCTACTTC,0.00524
19,GGGATCGA,-0.115
20,CGCACCAA,0.0184
21,ACGAATTC,0.115
22,ACCGTACC,-0.125
23,GTACCGAA,0.00935
24,AGCTGGGG,-0.178
25,CAGCCCCC,-0.313

row,Sequence,PBM E-score
1,CTGGGAGA,-0.0838
2,ATATGGAG,0.157
3,GATCCCGA,0.0683
4,CCCCCGGC,-0.372
5,CACGGCTG,-0.184
6,GTCCATCA,-0.0278
7,GTAAGGCA,-0.0345
8,AGGTCCCG,-0.0309
9,ACCCCCTC,-0.442
10,CCATGGTC,-0.152
11,GACAACTC,0.0803
12,ATGGCGAA,0.179
13,ATGCAGAG,-0.0748
14,GGCTGAGA,0.00306
15,AAAAACAA,0.181
16,CGTCCTCA,-0.116
17,CTAAGAAA,0.0882
18,ACTACCCT,-0.163
19,ACCCTTAA,-0.218
20,AGCTGCAC,-0.0122
21,GACTCCAC,-0.332
22,ACTCTTTG,-0.207
23,CCAACCAC,0.189
24,AACTCACA,0.115
25,TCGGGCCA,-0.0388

row,Sequence,PBM E-score
1,ACAGGGGT,-0.276
2,AGCAGCAA,-0.0226
3,GGGCGGGA,0.0845
4,AGCGTTTG,-0.069
5,CGGAGTGC,0.109
6,CCGTCCAA,-0.0376
7,ACCAACAC,0.136
8,GCAGGCAC,-0.264
9,ACGACCGT,-0.266
10,CGAGTACA,-0.0347
11,AGGATCGC,0.0539
12,GCTGTCCC,-0.129
13,CGCCCCAA,0.0555
14,CGTTTCTC,-0.229
15,AGCGTGCC,-0.091
16,ACTGGCTA,-0.114
17,CTCAGTAC,-0.0509
18,GAGTTCCA,-0.0572
19,CAACAAGA,-0.0155
20,AGGACCAA,-0.143
21,AACTCCAA,-0.0328
22,CCACCTAC,-0.198
23,CATAAAAG,-0.0296
24,ACATCGAA,0.169
25,AGATAGGA,-0.0626

row,Sequence,PBM E-score
1,AGGAGTAG,-0.112
2,ACTTACAT,0.0914
3,AGAAACAC,0.132
4,CCCGCTAC,0.117
5,CCTCTGTC,-0.0423
6,CACGTAAA,-0.106
7,AAAAGGAT,0.0254
8,GACGTCAC,0.00126
9,ACCATAAC,0.04
10,GAGGCGAC,-0.14
11,AGCAACTA,0.0746
12,CCTTAGTC,0.0508
13,CAAAGTTA,0.118
14,ATCTTAAT,0.0449
15,CTGGTTAC,-0.119
16,TCGGCCCA,-0.0821
17,ATTTGGGG,0.00808
18,CAAGCGAA,-0.0753
19,GGCTCGGA,-0.155
20,TCGTTACA,0.0786
21,GGTAGGGA,-0.096
22,AAGGCCGG,-0.111
